Laboratory results published in doi:10.1101/2023.03.03.531038.
Results are given in words; binding and its absence hold for the method and conditions named. In cells and extracts the contact can be indirect. For some assays here: A result given as binding can be weak or reduced; the word gives no strength.

Legend:
Test in all cases: split reporter
[1] = biological target: T1, TOM20-2 (BiFC construct) (Arabidopsis thaliana) (UniProt P82873)
T1 sequence: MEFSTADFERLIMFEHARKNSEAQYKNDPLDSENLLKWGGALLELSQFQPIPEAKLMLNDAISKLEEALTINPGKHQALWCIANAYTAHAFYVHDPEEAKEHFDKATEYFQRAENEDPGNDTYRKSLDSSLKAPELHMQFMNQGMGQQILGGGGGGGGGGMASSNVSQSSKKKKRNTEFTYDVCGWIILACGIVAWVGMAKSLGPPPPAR

[2] = biological target: T2, PEX19-1 (BiFC construct) (Arabidopsis thaliana) (UniProt Q9SRQ3)
T2 sequence: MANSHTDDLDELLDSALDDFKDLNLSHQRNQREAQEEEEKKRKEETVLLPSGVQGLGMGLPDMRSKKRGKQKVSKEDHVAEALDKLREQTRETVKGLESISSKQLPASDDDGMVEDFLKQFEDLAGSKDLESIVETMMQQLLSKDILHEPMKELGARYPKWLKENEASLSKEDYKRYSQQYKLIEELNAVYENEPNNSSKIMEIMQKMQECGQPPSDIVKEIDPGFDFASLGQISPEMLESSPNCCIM

[3] = biological target: T3, PEX11D (BiFC construct) (Arabidopsis thaliana) (UniProt O80845)
T3 sequence: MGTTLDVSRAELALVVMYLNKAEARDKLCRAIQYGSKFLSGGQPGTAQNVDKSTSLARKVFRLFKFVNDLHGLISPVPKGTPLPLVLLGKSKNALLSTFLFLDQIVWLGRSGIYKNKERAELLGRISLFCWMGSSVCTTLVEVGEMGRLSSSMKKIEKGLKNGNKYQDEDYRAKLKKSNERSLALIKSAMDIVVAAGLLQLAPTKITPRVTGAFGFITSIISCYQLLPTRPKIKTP

Substance	binding [1]	binding [2]	binding [3]
cYFP-NAC4 (Arabidopsis thaliana)	binds weakly	no binding	binds
cYFP-RPL11 (Arabidopsis thaliana)	–	no binding	binds
